From article PMC10371797
No constants are given. Whether binding was seen depends on the method and setting. In cells and extracts the contact can be indirect. Some entries that bind do so weakly or less than the wild type. Where a sequence is shown, tags or fusion partners need not be part of it.

Key:
ZC3H11A(wt)-Flag (human) = ZC3H11A(wt)-Flag (human) (UniProt O75152); assay: co-IP
[1] = target: T1, ZC3H11A(3C>A)-Flag (human) (UniProt O75152); assay: co-IP
T1 sequence: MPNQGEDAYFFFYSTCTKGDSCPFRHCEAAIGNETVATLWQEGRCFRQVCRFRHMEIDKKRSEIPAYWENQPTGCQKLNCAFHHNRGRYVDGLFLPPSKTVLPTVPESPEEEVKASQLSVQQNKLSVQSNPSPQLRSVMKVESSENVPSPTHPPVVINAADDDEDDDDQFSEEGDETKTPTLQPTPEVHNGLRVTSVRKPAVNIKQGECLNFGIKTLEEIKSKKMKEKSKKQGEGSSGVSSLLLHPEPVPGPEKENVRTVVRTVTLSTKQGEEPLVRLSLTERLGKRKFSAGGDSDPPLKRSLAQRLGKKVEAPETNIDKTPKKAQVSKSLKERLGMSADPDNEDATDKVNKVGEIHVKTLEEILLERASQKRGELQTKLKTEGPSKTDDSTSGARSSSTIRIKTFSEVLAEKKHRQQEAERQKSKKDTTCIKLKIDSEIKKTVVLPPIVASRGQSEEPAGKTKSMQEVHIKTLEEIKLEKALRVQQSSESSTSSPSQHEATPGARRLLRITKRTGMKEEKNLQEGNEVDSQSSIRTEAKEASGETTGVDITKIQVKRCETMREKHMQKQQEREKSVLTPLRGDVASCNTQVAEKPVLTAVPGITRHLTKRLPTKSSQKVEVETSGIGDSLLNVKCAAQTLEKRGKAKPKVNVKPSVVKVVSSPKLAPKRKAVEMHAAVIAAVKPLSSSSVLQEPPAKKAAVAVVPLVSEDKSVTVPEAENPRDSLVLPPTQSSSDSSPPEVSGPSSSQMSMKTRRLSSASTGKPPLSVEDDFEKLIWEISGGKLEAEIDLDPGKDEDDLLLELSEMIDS

binding (ZC3H11A(wt)-Flag (human)): binds | binding [1]: binds
B1: THOC5-HA (protein, UniProt Q13769 1-683)
chain: MSSESSKKRKPKVIRSDGAPAEGKRNRSDTEQEGKYYSEEAEVDLRDPGRDYELYKYTCQELQRLMAEIQDLKSRGGKDVAIEIEERRIQSCVHFMTLKKLNRLAHIRLKKGRDQTHEAKQKVDAYHLQLQNLLYEVMHLQKEITKCLEFKSKHEEIDLVSLEEFYKEAPPDISKAEVTMGDPHQQTLARLDWELEQRKRLAEKYRECLSNKEKILKEIEVKKEYLSSLQPRLNSIMQASLPVQEYLFMPFDQAHKQYETARHLPPPLYVLFVQATAYGQACDKTLSVAIEGSVDEAKALFKPPEDSQDDESDSDAEEEQTTKRRRPTLGVQLDDKRKEMLKRHPLSVMLDLKCKDDSVLHLTFYYLMNLNIMTVKAKVTTAMELITPISAGDLLSPDSVLSCLYPGDHGKKTPNPANQYQFDKVGILTLSDYVLELGHPYLWVQKLGGLHFPKEQPQQTVIADHSLSASHMETTMKLLKTRVQSRLALHKQFASLEHGIVPVTSDCQYLFPAKVVSRLVKWVTVAHEDYMELHFTKDIVDAGLAGDTNLYYMALIERGTAKLQAAVVLNPGYSSIPPVFQLCLNWKGEKTNSNDDNIRAMEGEVNVCYKELCGPWPSHQLLTNQLQRLCVLLDVYLETESHDDSVEGPKEFPQEKMCLRLFRGPSRMKPFKYNHPQGFFSHR
